Experimental data: PubChem BioAssay AID1224828 (NIAID, 2016)

- Purpose: 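Regulators linking TLR4 signalling to p65 nuclear translocation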 (primary screen)
- Cell system: mouse RAW264.7 G9 macrophage reporter cells (GFP-p65, Tnf promoter-mCherry)
- Reagents: siRNA pool against mouse genes, 100 nM
- Duration: 2 days siRNA transfection, then 40 min LPS before fixation
- Challenge: LPS (Salmonella minnesota R595) at 10 ng/ml
- Detection: 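Imaged p65 nuclear translocation ratio, normalised to the plate median, converted to robust z-scores and averaged across two replicates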
- Scale: p65 translocation robust z-score: higher = more nuclear NF-kappaB p65 after LPS than the plate median; nuclear/cytoplasmic p65 ratio: higher = more nuclear NF-kappaB p65
- Call rule: 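Called active when z exceeds 3.3 or falls under -1.56 (median of Tlr4 controls), giving activity score of at least 50; no calls for control wells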
- Meaning of the calls: active = hit (p65 shift raised or lowered); inactive = no clear change
Here is a random part of about 17,000 deposited reagents. 762 of all reagents (4.5%) count as active. 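Active calls include both raised and lowered p65 entry, mostly lowered; wells with fewer than 50 cells lack a z-score.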 The raw values are shown without normalisation. Unmarked entries are inactive. Some reagents were tested in more than one well and are listed for each.

| gene knocked down | p65 translocation robust z-score | nuclear/cytoplasmic p65 ratio, rep 1 | nuclear/cytoplasmic p65 ratio, rep 2 | low cell count flag |
| --- | --- | --- | --- | --- |
| Npm2 (GeneID 328440) | -1.62 (active) | 1.46 | 1.27 | enough cells to score |
| Hoxb2 (GeneID 103889) | 0.02 | 1.44 | 1.37 | enough cells to score |
| Mknk2 (GeneID 17347) | -0.49 | 1.54 | 1.37 | enough cells to score |
| Tnfsf13b (GeneID 24099) | -0.56 | 1.42 | 1.46 | enough cells to score |
| Pecam1 (GeneID 18613) | -0.06 | 1.45 | 1.4 | enough cells to score |
| Atp5mk (GeneID 66477) | – | 1.8 | 1.25 | fewer than 50 cells per well; well left out of scoring |
| Sh3kbp1 (GeneID 58194) | 0.78 | 1.59 | 1.74 | enough cells to score |
| Gemin6 (GeneID 67242) | -1.22 | 1.37 | 1.34 | enough cells to score |
| Colgalt1 (GeneID 234407) | 1.29 | 1.58 | 1.62 | enough cells to score |
| Slc25a26 (GeneID 67582) | – | 1.32 | 1.22 | fewer than 50 cells per well; well left out of scoring |
| Atp5mf (GeneID 57423) | -1.57 (active) | 1.35 | 1.31 | enough cells to score |
| Tnfrsf11a (GeneID 21934) | 0.82 | 1.62 | 1.65 | enough cells to score |
| Ackr4 (GeneID 252837) | -0.65 | 1.47 | 1.43 | enough cells to score |
| Or4f47 (GeneID 258440) | 0.78 | 1.62 | 1.62 | enough cells to score |
| Wdr36 (GeneID 225348) | 2.28 | 1.77 | 1.65 | enough cells to score |
| Eif5a2 (GeneID 208691) | 0.23 | 1.49 | 1.35 | enough cells to score |
| Eif1a (GeneID 13664) | -0.41 | 1.4 | 1.32 | enough cells to score |
| Esyt3 (GeneID 272636) | 0.07 | 1.54 | 1.6 | enough cells to score |
| Lpar6 (GeneID 67168) | – | 1.63 | 1.44 | fewer than 50 cells per well; well left out of scoring |
| Pdia4 (GeneID 12304) | 2.44 | 1.96 | 2 | enough cells to score |
| Ccdc166 (GeneID 223648) | 0.46 | 1.52 | 1.47 | enough cells to score |
| Vmn1r35 (GeneID 171185) | 0.83 | 1.48 | 1.34 | enough cells to score |
| Ghr (GeneID 14600) | 1.52 | 1.62 | 1.58 | enough cells to score |
| Naca (GeneID 17938) | 0.11 | 1.82 | 1.59 | enough cells to score |
| P4ha2 (GeneID 18452) | -1.2 | 1.28 | 1.12 | enough cells to score |
| Gipc3 (GeneID 209047) | 0.48 | 1.57 | 1.2 | enough cells to score |
| Rnf227 (GeneID 80515) | -0.02 | 1.42 | 1.47 | enough cells to score |
| Nudt16l2 (GeneID 73532) | – | 1.3 | 1.3 | fewer than 50 cells per well; well left out of scoring |
| Gdpd2 (GeneID 71584) | -0.45 | 1.47 | 1.45 | enough cells to score |
| Zmym1 (GeneID 68310) | 1.52 | 1.42 | 1.42 | enough cells to score |
| Timm29 (GeneID 69773) | – | 1.58 | 1.32 | fewer than 50 cells per well; well left out of scoring |
| Glp1r (GeneID 14652) | 1.17 | 1.63 | 1.79 | enough cells to score |
| A630031M04Rik (GeneID 115486416) | 4.09 (active) | 2.02 | 1.98 | enough cells to score |
| Esco2 (GeneID 71988) | – | 1.49 | 1.41 | fewer than 50 cells per well; well left out of scoring |
| Naip1 (GeneID 17940) | 0.78 | 1.81 | 1.65 | enough cells to score |
| Obp2a (GeneID 227627) | -0.4 | 1.5 | 1.8 | enough cells to score |
| Galnt9 (GeneID 231605) | – | 1.31 | 1.49 | fewer than 50 cells per well; well left out of scoring |
| Foxred1 (GeneID 235169) | -0.62 | 1.42 | 1.74 | enough cells to score |
| Synj2 (GeneID 20975) | 12.8 (active) | 1.67 | 5.13 | enough cells to score |
| Capn2 (GeneID 12334) | 0.06 | 1.61 | 1.64 | enough cells to score |
| Mier3 (GeneID 218613) | 0.66 | 1.54 | 1.47 | enough cells to score |
| Neurog1 (GeneID 18014) | -0.69 | 1.7 | 1.47 | enough cells to score |
| Pitrm1 (GeneID 69617) | 0.02 | 1.49 | 1.42 | enough cells to score |
| Magi2 (GeneID 50791) | -0.42 | 1.55 | 1.56 | enough cells to score |
| Tmem229a (GeneID 319832) | 0.55 | 1.38 | 1.59 | enough cells to score |
| Sct (GeneID 20287) | -0.49 | 1.32 | 1.19 | enough cells to score |
| 2210408I21Rik (GeneID 72371) | – | 1.25 | 1.25 | fewer than 50 cells per well; well left out of scoring |
| Myo1g (GeneID 246177) | -0.27 | 1.65 | 1.63 | enough cells to score |
| Sh3rf3 (GeneID 237353) | -0.69 | 1.19 | 1.18 | enough cells to score |
| Matn4 (GeneID 17183) | -0.92 | 1.51 | 1.47 | enough cells to score |
| Bag3 (GeneID 29810) | -0.78 | 1.51 | 1.49 | enough cells to score |
| Or10ak14 (GeneID 258259) | – | 1.52 | 1.49 | fewer than 50 cells per well; well left out of scoring |
| Clcn2 (GeneID 12724) | -0.51 | 1.35 | 1.36 | enough cells to score |
| Sart1 (GeneID 20227) | -0.2 | 1.56 | 1.42 | enough cells to score |
| Tpi1 (GeneID 21991) | -0.68 | 1.45 | 1.4 | enough cells to score |
| Cblif (GeneID 14603) | -0.72 | 1.43 | 1.19 | enough cells to score |
| Marveld2 (GeneID 218518) | -2.44 (active) | 1.38 | 1.26 | enough cells to score |
| Zfp113 (GeneID 56314) | – | 1.51 | 1.31 | fewer than 50 cells per well; well left out of scoring |
| Hesx1 (GeneID 15209) | 0.57 | 1.42 | 1.54 | enough cells to score |
| Kifbp (GeneID 72320) | 0.16 | 1.42 | 1.65 | enough cells to score |
| Npdc1 (GeneID 18146) | 1.47 | 1.96 | 1.72 | enough cells to score |
| Ppp3cc (GeneID 19057) | -0.01 | 1.51 | 1.4 | enough cells to score |
| Inhbc (GeneID 16325) | -0.08 | 1.51 | 1.33 | enough cells to score |
| Akip1 (GeneID 57373) | – | 1.45 | 1.21 | fewer than 50 cells per well; well left out of scoring |
| Elf5 (GeneID 13711) | 0.2 | 1.58 | 1.31 | enough cells to score |
| Cldnd1 (GeneID 224250) | 0.54 | 1.7 | 1.45 | enough cells to score |
| Or5k8 (GeneID 259004) | -0.82 | 1.48 | 1.29 | enough cells to score |
| Hcrtr1 (GeneID 230777) | -1.47 | 1.25 | 1.18 | enough cells to score |
| Ippk (GeneID 75678) | -0.84 | 1.53 | 1.3 | enough cells to score |
| Ippk (GeneID 75678) | – | 1.27 | 1.17 | fewer than 50 cells per well; well left out of scoring |
| Arfgef1 (GeneID 211673) | 0.24 | 1.47 | 1.43 | enough cells to score |
| Glra4 (GeneID 14657) | 1.69 | 1.84 | 1.7 | enough cells to score |
| Arl6ip4 (GeneID 65105) | -1.16 | 1.52 | 1.37 | enough cells to score |
| Papolg (GeneID 216578) | – | 1.51 | 1.63 | fewer than 50 cells per well; well left out of scoring |
| Mrpl13 (GeneID 68537) | 0.15 | 1.44 | 1.39 | enough cells to score |

Limited to “nuclear/cytoplasmic p65 ratio, rep 1”, for 10 of the entries above:
Gemin6 (GeneID 67242)	1.37
Colgalt1 (GeneID 234407)	1.58
Slc25a26 (GeneID 67582)	1.32
Atp5mf (GeneID 57423)	1.35 (active)
Tnfrsf11a (GeneID 21934)	1.62
Ackr4 (GeneID 252837)	1.47
Or4f47 (GeneID 258440)	1.62
Wdr36 (GeneID 225348)	1.77
Eif5a2 (GeneID 208691)	1.49
Eif1a (GeneID 13664)	1.4
